Screen size: about 320,000 compounds; about 22,000 (6.9%) were called active. The inconclusive results got no clear call from the source; some entries with a clear call stand among them for comparison. Calls come from the whole dose curve; as a rule, active = well fitted inhibition curve with a large enough effect; inconclusive = small, poorly fitted or top-dose-only effect, or another doubt; inactive = no such curve, though single readings can be large or run the other way. A potency beside an inconclusive call is a rough fit, not a confirmed value.
Experiment: Primary qHTS for delayed death inhibitors of the malarial parasite plastid, 96 hour incubation
Conditions: P. falciparum luciferase reporter growth; series mostly up to 28.7 µM
Summary of the method: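 96 h incubation, 37 C, 5% CO2, of luciferase-reporter P. falciparum-infected RBCs (2% hematocrit, 0.05% parasitemia final) with test compounds; endpoint luminescence.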
% is set by controls: 0 for no effect and ±100 for the full control effect; potency is the fitted concentration of half-maximal effect.

Compound	Potency	activity change, negative = inhibition
COCCNC(=O)CCCn1c(=O)c2ccccc2n(CC(=O)NCCC2=CCCCC2)c1=O	inconclusive: 8.28 µM [inhibitor, partial curve, poor fit]	
O=C(O)CCN1C(=O)/C(=C\c2cccc(Oc3ccccc3)c2)SC1=S	inactive	
CC(Oc1ccc(F)cc1)C(=O)Nc1ccccc1C(=O)N1CCCCC1 (stereo not given)	inactive	
Cc1ccc(C)c(N2CCN(C(=O)CCCn3c(=S)[nH]c4cc5c(cc4c3=O)OCO5)CC2)c1	inconclusive: 13.1 µM [inhibitor, single point]	
Cc1ccc(S(=O)(=O)N2CCCCC2)cc1NC(=O)CSc1nncn1-c1ccccc1	inconclusive: 9.28 µM [inhibitor, single point]	
COc1ccc(CNC(=O)CSc2nc3[nH]ncc3c(=O)n2-c2ccccc2Br)cc1	inconclusive: 18.5 µM [inhibitor, single point]	
COCCn1c(=O)[nH]c2cc(C(=O)N3CCN(c4ccc(Cl)cc4)CC3)ccc2c1=O	inactive	
Cc1nc2sc(C(N)=O)c(N)c2c(C)c1CC(=O)c1ccccc1		inactive: -34.2% [at 5.75 µM]
CN(CCCNC(=O)c1cc2c(=O)[nH]c3ccccc3c2n1C)Cc1ccccc1	inconclusive: 8.28 µM [inhibitor, partial curve, poor fit]	
CN1CCN(c2nc(-c3ccccc3)cc(C(F)(F)F)n2)CC1	inconclusive: 11.7 µM [inhibitor, partial curve, poor fit]	
CCc1nc2nc(C)c(NS(=O)(=O)c3ccc(Cl)s3)c(=O)n2[nH]1	inconclusive: 18.5 µM [inhibitor, single point]	
COc1ccc(C(=O)N/N=C(\N)c2cc3ccccc3oc2=O)cc1	inconclusive: 10.4 µM [inhibitor, single point]	
Cc1ccc(Cn2ccc(NC(=O)C3C4CCC(C4)C3C(=O)O)n2)cc1 (stereo not given)	inconclusive: 16.5 µM [inhibitor, single point]	
COc1ccc(C)cc1N(CC(=O)NCCSCc1cccc(Cl)c1)S(C)(=O)=O	active: 11.7 µM	
O=C(NNC(=O)C1C2C=CC(C2)C1C(=O)O)c1cc(Cl)ccc1O (stereo not given)	inactive	
C=CCSc1nc(C)c(CC(=C)C)c(=O)[nH]1	inconclusive: 7.38 µM [inhibitor, partial curve, poor fit]	
COc1ccc(C(=O)O)cc1NC(=S)NC(=O)/C=C/c1ccc(C(C)C)cc1	inactive	
CCOCCCNC(=O)CNC(=S)N(Cc1ccccc1F)C1CCCCC1	inconclusive: 20.8 µM [inhibitor, partial curve, poor fit]	
COc1cccc2c3c(c(C)nc12)CC(C)O3 (stereo not given)	inconclusive: 18.5 µM [inhibitor, single point]	
CCC(=O)N/C(N)=N/c1nc2ccccc2o1	inactive	
CC1CCCCN1S(=O)(=O)c1ccc(C(=O)Nc2nnc(C3=COCCO3)o2)cc1 (stereo not given)	inconclusive: 10.4 µM [inhibitor, partial curve]	
O=C(O)c1ccc(NCc2nc3ccccc3n2CCOc2ccccc2Cl)cc1	inactive	
Cc1onc(-c2ccccc2Cl)c1NC(=O)NCc1cccs1	inconclusive: 10.4 µM [inhibitor, single point]	
C=CCN(c1cccc(C(F)(F)F)c1)S(=O)(=O)c1cccc(C(=O)OCC(=O)NC(N)=O)c1	inconclusive: 1.65 µM [inhibitor, partial curve, poor fit]	

Compound	Potency	activity change, negative = inhibition
Cc1ccc(Nc2nc(CSc3nnc(-c4cccs4)o3)cs2)cc1	inconclusive: 11.7 µM [inhibitor, partial curve, poor fit]	
Cc1nc(SCC(=O)Nc2ccccc2Cl)c2c(C)c(C)sc2n1	inconclusive: 1.85 µM [inhibitor, full curve]	
COC(=O)C1CSC(C(=O)OC)N1C(=O)CN1CC(C)OC(C)C1 (stereo not given)	inactive	
Cc1cccc(NC(=O)c2cc(-c3cc(C)c(C)cc3O)n[nH]2)c1	inconclusive: 3.29 µM [inhibitor, full curve, poor fit]	
OC(Cn1c2ccccc2c2ccccc21)C[n+]1cccc2ccccc21 (stereo not given)	active: 3.29 µM	
Cc1[nH]c2ccccc2c1SCC(=O)NNC(=O)Nc1ccc(OC(F)(F)F)cc1	inconclusive: 5.86 µM [inhibitor, partial curve, poor fit]	
COc1ccc(OC(C)C(=O)NCc2cccnc2)cc1 (stereo not given)	inconclusive: 18.5 µM [inhibitor, single point]	
Cc1nn(-c2ccccc2)c(C)c1/C=N/NC(=O)c1cc(C2CC2)[nH]n1	inconclusive: 9.28 µM [inhibitor, partial curve, poor fit]	
CCCC(=O)NCCc1cc2cc(C)c(C)cc2[nH]c1=O	inconclusive: 18.5 µM [inhibitor, single point]	
COc1ccc(OCc2nn[nH]n2)cc1	inconclusive: 4.15 µM [inhibitor, single point]	
O=C(NCCCN1CCCC1=O)c1cc(S(=O)(=O)N2CCOCC2)ccc1Cl	inactive	
COc1ccc(NC(=O)c2ccc(Cl)nc2)cc1S(=O)(=O)N1CCOCC1	active: 11.7 µM	
O=C(NCc1ccccn1)c1ccc2c(c1)N(Cc1ccccc1)CCS2	inconclusive: 11.7 µM [inhibitor, single point]	
CC(=O)N1c2ccc(Cl)cc2C2OCCC2C1c1ccco1 (stereo not given)	inconclusive: 9.28 µM [inhibitor, partial curve, poor fit]	
COc1ccc(C(=O)COC(=O)CCn2nnc(-c3cccc(O)c3OC)n2)cc1	active: 11.7 µM	
COc1cc(C(=O)N/C(=C\c2cn(S(=O)(=O)N(C)C)c3ccccc23)C(=O)NCCCO)cc(OC)c1OC	active: 8.28 µM	
O=C(COc1ccccc1Cl)Nc1cccc(S(=O)(=O)N2CCCC2)c1	inconclusive: 11.7 µM [inhibitor, single point]	
O=C(c1cccc(NC2=NC3CS(=O)(=O)CC3S2)c1)N1CCN(c2ncccn2)CC1 (stereo not given)	inconclusive: 10.4 µM [inhibitor, single point]	
COc1ccc(-c2[nH]ncc2CN2CCN(c3ccc(F)cc3)CC2)cc1	inconclusive: 0.0738 µM [inhibitor, full curve, poor fit]	
COc1ccc(OC/C(O)=C(\C#N)c2nc3ccccc3[nH]2)cc1	inactive	
COCCNC(=O)c1ccc(S(=O)(=O)N2CCCc3ccccc32)cc1	inactive	
COc1ccc(NS(=O)(=O)c2ccc(N/N=C/c3ccc(N4CCOCC4)cc3)c([N+](=O)[O-])c2)cc1	inconclusive: 8.28 µM [inhibitor, partial curve, poor fit]	
CCOc1ccc(N(C(C)C(=O)Nc2ccc(OC)cc2)S(C)(=O)=O)cc1 (stereo not given)	inconclusive: 16.5 µM [inhibitor, single point]	
CN1CCN(C(=S)NC(=O)c2ccc(C(C)(C)C)cc2)CC1	inactive	

Reprinted at random: 3 compounds from above, in no set order.
Compound	Potency	activity change, negative = inhibition
OC(Cn1c2ccccc2c2ccccc21)C[n+]1cccc2ccccc21 (stereo not given)	active: 3.29 µM	
COCCNC(=O)c1ccc(S(=O)(=O)N2CCCc3ccccc32)cc1	inactive	
O=C(NCc1ccccn1)c1ccc2c(c1)N(Cc1ccccc1)CCS2	inconclusive: 11.7 µM [inhibitor, single point]	

(cont.)

Compound	Potency	activity change, negative = inhibition
CC1C/C(=C/c2ccccn2)C(=O)/C(=C/c2ccccn2)C1 (stereo not given)	inconclusive: 2.62 µM [inhibitor, full curve, poor fit]	
Cc1ccc(OCC(=O)Nn2cnnc2)c(Br)c1	inconclusive: 18.5 µM [inhibitor, single point]	
Cc1nnc(NC(=O)CCN2C(=O)/C(=C\c3ccccc3)SC2=S)s1	inactive	
CC(=O)C1C2c3ccccc3O[C@@]1(C)N=c1s/c(=C/c3ccoc3)c(=O)n12 (stereo not given in full)	inconclusive: 0.738 µM [inhibitor, full curve, poor fit]	
O=S(=O)(c1cccc(F)c1)N1CCN(C(=S)NCC2CCCO2)CC1 (stereo not given)	inconclusive: 11.7 µM [inhibitor, single point]	
CC(=O)N1CCC(N(CCN2CCOCC2)C(=S)Nc2c(C)cccc2C)CC1	inactive	
O=C(COc1ccc(Br)cc1)NNC(=S)NCc1ccccc1	inactive	
Cn1cc([N+](=O)[O-])c(C(=O)NCc2cc3ccccc3[nH]2)n1	inactive	
COc1ccc(/C=C(/NC(=O)c2ccc(Br)cc2)C(=O)N2CCOCC2)cc1	inconclusive: 18.5 µM [inhibitor, single point]	
CSCC[C@H](NC(=O)Nc1ccc(Oc2ccccc2)cc1)C(=O)O	inconclusive: 14.7 µM [inhibitor, partial curve]	
CC(C)n1nnc(-c2ccc(OCc3ccccc3F)cc2)n1	active: 8.28 µM	
C/C(=N\NC(=O)CNC(=O)c1ccccc1Br)c1ccco1	inactive	
O=C(NC1CCCc2ccccc21)C1CCCN(S(=O)(=O)c2cnc[nH]2)C1 (stereo not given)	inconclusive: 14.7 µM [inhibitor, single point]	
CCOC(=O)C1=C(N)OC2=C(C(=O)CC(C)(C)C2)C1c1ccc(C)s1 (stereo not given)	inactive	
Cc1ccc(CCC(=O)Nc2ccc(Br)cc2)o1	inconclusive: 18.5 µM [inhibitor, single point]	
NC(N)=NC(N)=Nc1ccc(SC(F)(F)F)cc1	active: 3.29 µM	
COc1ccc(/C=C2\COc3ccccc3C2=O)cc1OC	inactive	
O=C(CN1C(=O)NC2(CCCCC2)C1=O)Nc1cccc(S(=O)(=O)N2CCCC2)c1	inconclusive: 9.28 µM [inhibitor, single point]	
COc1cc(OC)cc(C(=O)NCC(=O)OCc2csc(-c3ccccc3)n2)c1	inconclusive: 8.28 µM [inhibitor, partial curve, poor fit]	
c1ccc2c(c1)[nH]c1c(N3CCOCC3)ncnc12	inactive	
CC(=O)c1ccc(N2CCc3ccccc3C2)c([N+](=O)[O-])c1	inactive	
O=C(Nc1ccc(Cl)cc1)C1C2CCC3C(CCC21)C3(Cl)Cl (stereo not given)	inconclusive: 1.17 µM [inhibitor, partial curve, poor fit]	
